This assay deals with T1, C9ORF135 protein (chromosome 9 open reading frame 135), isoform 1 (human (endogenous in hESCs)) (UniProt Q5VTT2).
T1 sequence: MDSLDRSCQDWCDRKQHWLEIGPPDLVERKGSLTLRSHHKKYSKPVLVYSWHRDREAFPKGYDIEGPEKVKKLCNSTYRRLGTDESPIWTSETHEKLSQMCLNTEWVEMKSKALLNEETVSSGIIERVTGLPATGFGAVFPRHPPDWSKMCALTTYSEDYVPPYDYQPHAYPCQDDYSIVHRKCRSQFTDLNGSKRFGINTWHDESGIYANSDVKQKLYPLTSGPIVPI
The assay is described as follows: affinity purification with mass spectrometry; hESC lysate precipitated with anti-C9ORF135 antibody (control: normal IgG); SDS-PAGE, silver staining; three bands present only in the antibody pulldown excised and analysed by MS (LTQ Orbitrap XL).

By UniProt entry, the sequences of proteins in these tests, tags left out.
UniProt P35579: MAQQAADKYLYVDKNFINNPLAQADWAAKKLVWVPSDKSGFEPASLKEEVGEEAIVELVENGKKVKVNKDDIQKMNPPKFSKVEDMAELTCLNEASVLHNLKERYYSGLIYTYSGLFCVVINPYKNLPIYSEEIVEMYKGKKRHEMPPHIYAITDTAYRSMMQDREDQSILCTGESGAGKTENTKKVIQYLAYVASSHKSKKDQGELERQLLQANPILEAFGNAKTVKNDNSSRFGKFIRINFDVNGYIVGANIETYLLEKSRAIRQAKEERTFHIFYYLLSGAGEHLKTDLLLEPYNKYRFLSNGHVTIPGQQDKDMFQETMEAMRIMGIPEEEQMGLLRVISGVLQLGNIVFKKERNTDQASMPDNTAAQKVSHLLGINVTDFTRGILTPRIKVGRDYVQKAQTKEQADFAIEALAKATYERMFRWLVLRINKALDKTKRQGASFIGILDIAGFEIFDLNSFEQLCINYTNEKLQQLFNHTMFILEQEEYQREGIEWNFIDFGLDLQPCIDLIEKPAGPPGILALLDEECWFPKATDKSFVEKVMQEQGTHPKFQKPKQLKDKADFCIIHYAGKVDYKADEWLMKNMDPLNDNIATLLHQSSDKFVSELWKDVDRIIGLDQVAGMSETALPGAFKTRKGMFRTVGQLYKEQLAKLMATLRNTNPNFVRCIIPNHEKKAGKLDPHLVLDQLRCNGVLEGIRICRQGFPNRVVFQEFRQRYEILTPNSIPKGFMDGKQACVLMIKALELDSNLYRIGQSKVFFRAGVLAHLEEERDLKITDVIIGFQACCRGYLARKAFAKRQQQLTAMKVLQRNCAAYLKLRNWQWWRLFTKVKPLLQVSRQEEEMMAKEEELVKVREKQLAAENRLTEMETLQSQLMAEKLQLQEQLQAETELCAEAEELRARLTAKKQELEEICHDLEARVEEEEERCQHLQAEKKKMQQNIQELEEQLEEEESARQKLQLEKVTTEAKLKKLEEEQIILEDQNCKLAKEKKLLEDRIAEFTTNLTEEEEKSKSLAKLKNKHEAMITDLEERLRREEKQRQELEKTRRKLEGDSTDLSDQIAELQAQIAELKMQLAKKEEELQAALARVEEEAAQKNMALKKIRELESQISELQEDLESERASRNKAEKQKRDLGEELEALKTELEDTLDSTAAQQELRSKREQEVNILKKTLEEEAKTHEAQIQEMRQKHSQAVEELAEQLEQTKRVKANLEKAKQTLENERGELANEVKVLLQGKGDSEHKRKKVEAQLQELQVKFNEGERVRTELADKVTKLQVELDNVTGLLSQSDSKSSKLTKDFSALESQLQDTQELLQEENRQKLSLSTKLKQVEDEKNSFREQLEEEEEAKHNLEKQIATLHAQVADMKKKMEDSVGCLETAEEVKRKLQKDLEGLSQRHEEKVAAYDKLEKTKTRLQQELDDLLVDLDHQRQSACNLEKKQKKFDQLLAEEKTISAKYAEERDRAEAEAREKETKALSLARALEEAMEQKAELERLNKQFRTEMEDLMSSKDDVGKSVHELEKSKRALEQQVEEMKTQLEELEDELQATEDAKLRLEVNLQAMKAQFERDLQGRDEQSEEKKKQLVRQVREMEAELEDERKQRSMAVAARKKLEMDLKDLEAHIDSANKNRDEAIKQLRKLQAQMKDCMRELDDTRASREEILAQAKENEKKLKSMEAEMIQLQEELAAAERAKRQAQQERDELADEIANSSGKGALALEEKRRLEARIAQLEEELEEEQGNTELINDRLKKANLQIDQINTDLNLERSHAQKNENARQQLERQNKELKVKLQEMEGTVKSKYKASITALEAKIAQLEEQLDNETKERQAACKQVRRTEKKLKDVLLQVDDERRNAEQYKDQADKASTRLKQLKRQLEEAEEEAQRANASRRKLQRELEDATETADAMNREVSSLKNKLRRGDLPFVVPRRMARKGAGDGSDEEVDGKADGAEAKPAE

Here are results for one substance from PMC5366912.

These are yes or no findings as the source states them, for the method shown. Binding seen in cells or lysates may run through a third protein. Here binding means that the protein was enriched with, or labelled near, the bait; the list need not be complete.

As to “myosin-9 (MYH9, myosin-IIA) (from UniProt P35579 1-1960)”, the binding result is reported as “binds”.
